At least one compound was matched to its structure with a doubt left.
Tested on: rat kidneys
Test: Light microscopy histology of isolated rat kidneys perfused 12 hours at 37° C. with L-15
Protocol: Animals. Male Sprague-Dawley rats, 15 to 20 weeks-of-age, were housed in a University of Pittsburgh Medical Center animal care facility (temperature 22 EC; light cycle 12 hours; relative humidity 55%). Animals were fed Pro Laboratory RMH 3000 rodent diet (PMI Nutrition Inc., St. Louis, Mo.) and were given water ad libitum. Institutional guidelines for animal welfare were followed, and the Institutional Animal Care and Use Committee approved experimental protocols.
Preparation of Perfusion System. Due to bacterial infection associated with chronic kidney perfusion at 37° C., rat kidneys were perfused in a sterile environment. A glass perfusion system (Hugo Sachs Elektronik-Harvard Apparatus GmbH), which allowed for autoclaving and ultraviolet-light sterilization without damage to the structural integrity of the system, was used in all experiments. This system included the following components arranged in series: a jacketed glass perfusate reservoir for warming and initial oxygenation of perfusate; a jacketed glass-oxygenator for additional oxygenation; a Windkessel chamber for absorption of pulsations; a jacketed heat exchanger for warming the perfusate and trapping bubbles just before the perfusate enters the kidney; and a jacketed organ chamber to keep the kidney's surrounding environment at 37° C.
Drug Preparation. […]

Cc1cccc(Nc2cc(Cl)nc(SCC(=O)O)n2)c1C [WY-14643, 4-chloro-6-(2,3-xylidino)-2-pyrimidinylthioacetic acid]
histological preservation at the light microscopic level (WY-14643 16 mg/L, three kidneys, compared to L-15 alone): improved
histological preservation as assessed by light microscopy (screen of pharmacological agents) (agent added to L-15 perfusate, 12-hour perfusion at 37° C.): moderate histological preservation

Source: patent US7897326B2, “Peroxisome-proliferator activated receptor-alpha agonists for organ preservation” (University of Pittsburgh-of the Commonwealth System of …, priority 2006, dated 2011)
